# Experimental data from the M2OR odorant receptor database.
# The chains behind the UniProt entries cited, without tags or fusion partners. Where a name states a change or a piece, a line headed by the entry shows the natural chain unless it says otherwise.
# UniProt Q8NH60: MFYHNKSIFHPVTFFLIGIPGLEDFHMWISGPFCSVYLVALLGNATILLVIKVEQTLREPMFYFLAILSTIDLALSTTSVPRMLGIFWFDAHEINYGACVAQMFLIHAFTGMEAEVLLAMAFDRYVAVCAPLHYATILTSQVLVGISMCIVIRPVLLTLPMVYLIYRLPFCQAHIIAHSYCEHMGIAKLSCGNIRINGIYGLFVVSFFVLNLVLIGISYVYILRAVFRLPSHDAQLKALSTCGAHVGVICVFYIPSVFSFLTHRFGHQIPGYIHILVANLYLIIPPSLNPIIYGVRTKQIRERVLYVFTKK
# UniProt Q8NGH6: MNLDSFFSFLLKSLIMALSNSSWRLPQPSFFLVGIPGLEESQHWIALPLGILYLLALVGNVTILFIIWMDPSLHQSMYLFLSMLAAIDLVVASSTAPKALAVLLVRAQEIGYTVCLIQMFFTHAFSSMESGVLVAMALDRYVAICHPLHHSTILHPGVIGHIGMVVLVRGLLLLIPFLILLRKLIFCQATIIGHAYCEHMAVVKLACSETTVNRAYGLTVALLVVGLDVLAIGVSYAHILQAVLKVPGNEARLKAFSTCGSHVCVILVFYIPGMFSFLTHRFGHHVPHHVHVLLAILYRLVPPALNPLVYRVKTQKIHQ
# UniProt Q96RD3: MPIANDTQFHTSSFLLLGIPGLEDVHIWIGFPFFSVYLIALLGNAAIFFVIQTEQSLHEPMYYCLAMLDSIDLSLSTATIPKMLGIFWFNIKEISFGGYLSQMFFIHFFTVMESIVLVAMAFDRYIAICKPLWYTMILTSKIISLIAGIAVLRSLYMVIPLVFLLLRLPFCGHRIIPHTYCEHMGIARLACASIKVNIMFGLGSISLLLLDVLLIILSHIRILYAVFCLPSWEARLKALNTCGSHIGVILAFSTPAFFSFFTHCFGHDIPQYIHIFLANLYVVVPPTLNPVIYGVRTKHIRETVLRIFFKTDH
# The entries are a selection whose mix differs from that of the whole data set. The calls were merged from several studies; some rest on single wells. The list shows a part of the results.
# How the values were obtained:
# Details in all cases: stereoisomer not certain
# OR52H1 (Homo sapiens) = target: T1, OR52H1 (Homo sapiens) (UniProt Q8NGJ2)
# T1 sequence (whole entry): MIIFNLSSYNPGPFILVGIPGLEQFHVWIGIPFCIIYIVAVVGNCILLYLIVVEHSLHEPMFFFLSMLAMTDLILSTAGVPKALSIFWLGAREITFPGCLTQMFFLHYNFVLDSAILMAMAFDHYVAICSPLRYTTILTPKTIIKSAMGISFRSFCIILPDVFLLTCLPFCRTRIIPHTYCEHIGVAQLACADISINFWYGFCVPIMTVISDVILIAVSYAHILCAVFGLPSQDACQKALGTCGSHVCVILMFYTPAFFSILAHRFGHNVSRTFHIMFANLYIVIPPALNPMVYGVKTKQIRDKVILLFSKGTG
# Method in brief: (§1)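 Whether a receptor–molecule pair is responsive (active) rests on the original authors' judgment that its measured signal was statistically different from baseline. Pairs without that judgment are non-responsive (inactive). Sources used varied assay methods, commonly transient luciferase assays in mammalian cell lines.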
# OR52I2 (Homo sapiens) = target: T2, OR52I2 (Homo sapiens) (UniProt Q8NH67)
# T2 sequence (whole entry): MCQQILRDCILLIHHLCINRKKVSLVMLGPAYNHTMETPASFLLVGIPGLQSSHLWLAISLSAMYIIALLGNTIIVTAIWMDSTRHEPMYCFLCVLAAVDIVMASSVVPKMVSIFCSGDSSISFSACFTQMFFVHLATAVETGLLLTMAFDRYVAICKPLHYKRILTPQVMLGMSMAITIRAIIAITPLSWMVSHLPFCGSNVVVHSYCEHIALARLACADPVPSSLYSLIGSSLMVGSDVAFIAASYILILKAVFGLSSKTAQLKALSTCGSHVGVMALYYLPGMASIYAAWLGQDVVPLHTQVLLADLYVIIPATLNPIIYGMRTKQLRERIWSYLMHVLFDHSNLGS
# Method in brief: as §1
# OR52J3 (Homo sapiens) = OR52J3 (Homo sapiens) (UniProt Q8NH60)
# Method in brief: as §1
# OR52L1 (Homo sapiens) = target: T3, OR52L1 (Homo sapiens) (UniProt Q8NGH7)
# T3 sequence (whole entry): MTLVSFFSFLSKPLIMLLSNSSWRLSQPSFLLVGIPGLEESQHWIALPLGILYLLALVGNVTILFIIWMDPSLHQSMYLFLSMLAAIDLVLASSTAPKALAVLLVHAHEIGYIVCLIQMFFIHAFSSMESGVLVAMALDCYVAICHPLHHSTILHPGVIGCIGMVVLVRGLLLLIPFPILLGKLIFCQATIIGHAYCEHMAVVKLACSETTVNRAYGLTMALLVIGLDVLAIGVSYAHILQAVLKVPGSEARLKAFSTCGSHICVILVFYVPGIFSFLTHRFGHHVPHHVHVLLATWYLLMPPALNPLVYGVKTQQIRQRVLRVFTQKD
# Method in brief: as §1
# OR52L2P (Homo sapiens) = OR52L2P (Homo sapiens) (UniProt Q8NGH6)
# Method in brief: as §1
# OR52M1 (Homo sapiens) = target: T4, OR52M1 (Homo sapiens) (UniProt Q8NGK5)
# T4 sequence (whole entry): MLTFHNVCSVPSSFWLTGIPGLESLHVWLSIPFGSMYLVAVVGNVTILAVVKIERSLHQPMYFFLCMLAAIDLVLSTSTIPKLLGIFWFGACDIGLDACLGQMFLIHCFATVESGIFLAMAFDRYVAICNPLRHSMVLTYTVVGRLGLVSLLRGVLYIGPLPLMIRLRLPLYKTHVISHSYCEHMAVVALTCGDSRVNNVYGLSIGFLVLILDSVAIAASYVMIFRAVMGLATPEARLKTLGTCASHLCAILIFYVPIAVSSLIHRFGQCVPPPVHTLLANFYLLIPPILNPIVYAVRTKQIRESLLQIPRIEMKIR
# Method in brief: as §1
# OR52E6 (Homo sapiens) = OR52E6 (Homo sapiens) (UniProt Q96RD3)
# Method in brief: as §1
# OR52K1 (Homo sapiens) = target: T5, OR52K1 (Homo sapiens) (UniProt Q8NGK4)
# T5 sequence (whole entry): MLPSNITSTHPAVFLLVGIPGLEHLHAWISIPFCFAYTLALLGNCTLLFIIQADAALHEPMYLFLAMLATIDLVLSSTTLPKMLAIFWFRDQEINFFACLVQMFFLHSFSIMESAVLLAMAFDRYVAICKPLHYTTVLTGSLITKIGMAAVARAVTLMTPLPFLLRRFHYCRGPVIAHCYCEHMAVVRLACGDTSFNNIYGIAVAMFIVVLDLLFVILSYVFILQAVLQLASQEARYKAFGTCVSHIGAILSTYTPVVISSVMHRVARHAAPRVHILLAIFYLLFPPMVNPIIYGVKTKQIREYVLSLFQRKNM
# Method in brief: as §1
# OR52K2 (Homo sapiens) = target: T6, OR52K2 (Homo sapiens) (UniProt Q8NGK3)
# T6 sequence (whole entry): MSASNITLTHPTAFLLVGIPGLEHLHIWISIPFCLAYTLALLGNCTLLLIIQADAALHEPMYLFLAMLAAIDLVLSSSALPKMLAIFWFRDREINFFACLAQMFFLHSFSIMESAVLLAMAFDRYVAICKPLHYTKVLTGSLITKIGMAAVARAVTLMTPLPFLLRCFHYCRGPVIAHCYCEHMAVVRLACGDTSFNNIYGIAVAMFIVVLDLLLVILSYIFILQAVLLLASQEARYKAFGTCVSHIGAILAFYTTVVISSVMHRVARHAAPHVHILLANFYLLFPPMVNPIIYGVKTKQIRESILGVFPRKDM
# Method in brief: as §1
# 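Also: active if original authors judged signal statistically different from baseline.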
structure (smiles),measurement,setting,value
CC12C=CCC1C1CCC3CC(=O)CCC3(C)C1CC2 (stereo not given),odorant receptor agonist call,OR52H1 (Homo sapiens),inactive
same,odorant receptor agonist call,OR52I2 (Homo sapiens),inactive
same,odorant receptor agonist call,OR52J3 (Homo sapiens),inactive
same,odorant receptor agonist call,OR52L1 (Homo sapiens),inactive
same,odorant receptor agonist call,OR52L2P (Homo sapiens),inactive
same,odorant receptor agonist call,OR52M1 (Homo sapiens),inactive
CCCCCCCOC(C)=O,odorant receptor agonist call,OR52E6 (Homo sapiens),inactive
same,odorant receptor agonist call,OR52H1 (Homo sapiens),inactive
same,odorant receptor agonist call,OR52K1 (Homo sapiens),inactive
same,odorant receptor agonist call,OR52K2 (Homo sapiens),inactive
C=C(C)C1CCC2=CC(=O)CC(C)C2(C)C1 (stereo not given),odorant receptor agonist call,OR52H1 (Homo sapiens),active
CC1CCC(C(C)C)C(O)C1 (stereo not given),odorant receptor agonist call,OR52E6 (Homo sapiens),inactive
same,odorant receptor agonist call,OR52H1 (Homo sapiens),inactive
same,odorant receptor agonist call,OR52K1 (Homo sapiens),inactive
same,odorant receptor agonist call,OR52K2 (Homo sapiens),inactive
COC(=O)c1ccccc1,odorant receptor agonist call,OR52E6 (Homo sapiens),inactive
same,odorant receptor agonist call,OR52K1 (Homo sapiens),inactive
same,odorant receptor agonist call,OR52K2 (Homo sapiens),inactive
CC1=NC(C)SC1C (stereo not given),odorant receptor agonist call,OR52E6 (Homo sapiens),inactive
same,odorant receptor agonist call,OR52K1 (Homo sapiens),inactive
same,odorant receptor agonist call,OR52K2 (Homo sapiens),inactive
CC(C)(O)CCCC1=CCC(C=O)CC1 (stereo not given),odorant receptor agonist call,OR52H1 (Homo sapiens),inactive
CC(C)(C)c1ccc(CCC=O)cc1,odorant receptor agonist call,OR52E6 (Homo sapiens),inactive
same,odorant receptor agonist call,OR52H1 (Homo sapiens),inactive
same,odorant receptor agonist call,OR52K1 (Homo sapiens),inactive
same,odorant receptor agonist call,OR52K2 (Homo sapiens),inactive
CC(C)C(=O)O,odorant receptor agonist call,OR52E6 (Homo sapiens),active
same,odorant receptor agonist call,OR52H1 (Homo sapiens),inactive
same,odorant receptor agonist call,OR52K1 (Homo sapiens),inactive
same,odorant receptor agonist call,OR52K2 (Homo sapiens),inactive
CC=Cc1ccc(O)c(OC)c1,odorant receptor agonist call,OR52E6 (Homo sapiens),inactive
same,odorant receptor agonist call,OR52H1 (Homo sapiens),active
same,odorant receptor agonist call,OR52K1 (Homo sapiens),inactive
same,odorant receptor agonist call,OR52K2 (Homo sapiens),inactive
CC12C=CCC1C1CCC3=CC(=O)CCC3(C)C1CC2 (stereo not given),odorant receptor agonist call,OR52E6 (Homo sapiens),inactive
same,odorant receptor agonist call,OR52H1 (Homo sapiens),inactive
same,odorant receptor agonist call,OR52K1 (Homo sapiens),inactive
same,odorant receptor agonist call,OR52K2 (Homo sapiens),inactive
C=CCc1ccc(OC)c(OC)c1,odorant receptor agonist call,OR52E6 (Homo sapiens),inactive
same,odorant receptor agonist call,OR52H1 (Homo sapiens),inactive
same,odorant receptor agonist call,OR52K1 (Homo sapiens),inactive
same,odorant receptor agonist call,OR52K2 (Homo sapiens),inactive
CC12CCC(C1)C(C)(C)C2=O (stereo not given),odorant receptor agonist call,OR52E6 (Homo sapiens),inactive
same,odorant receptor agonist call,OR52H1 (Homo sapiens),inactive
same,odorant receptor agonist call,OR52K1 (Homo sapiens),inactive
same,odorant receptor agonist call,OR52K2 (Homo sapiens),inactive
CCCCO,odorant receptor agonist call,OR52E6 (Homo sapiens),inactive
same,odorant receptor agonist call,OR52H1 (Homo sapiens),inactive
same,odorant receptor agonist call,OR52K1 (Homo sapiens),inactive
same,odorant receptor agonist call,OR52K2 (Homo sapiens),inactive

# Part of the list above, as tab-separated lines:
structure (smiles)	measurement	setting	value
COC(=O)c1ccccc1	odorant receptor agonist call	OR52K2 (Homo sapiens)	inactive
CC1=NC(C)SC1C (stereo not given)	odorant receptor agonist call	OR52E6 (Homo sapiens)	inactive
same	odorant receptor agonist call	OR52K1 (Homo sapiens)	inactive
same	odorant receptor agonist call	OR52K2 (Homo sapiens)	inactive
